# Laboratory results published in the supplement of paper PMC8104966.
# The other results are listed elsewhere or left out. Single values are uncertain here, since repeats match poorly.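 Fusion between ACE2-bearing and full-length-spike-bearing U2OS cells was measured by imaging as the percentage of nuclei with both cell types' fluorescent markers. An inhibitory hit is a non-toxic compound whose fusion z-score is below -3, more than three standard deviations beneath the plate's DMSO wells.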
# Test system: U2OS ACE2 x SARS-CoV-2 spike co-culture
# Experiment: cell-cell fusion (fraction fused) z-score vs plate DMSO control; higher = more fusion
# Conditions: 30 µM; 5 h; toxicity class: non-toxic, passed QC
row,Structure (SMILES),cell-cell fusion (z-score)
1,Cl.O=C(O)c1cn(-c2ccc(F)cc2)c2cc(N3CCNCC3)c(F)cc2c1=O,inactive: 2.78
2,O=C(O)/C=C/c1ccc(O)c(O)c1,inactive: 0.624
3,O=C(O)/C=C/c1ccc(O)c(O)c1 [Caffeic Acid],inactive: 0.806
4,COC(=O)[C@@H](N)CCCNC(=N)N[N+](=O)[O-].Cl [NG-Nitro-L-arginine methyl ester hydrochloride],inactive: 2.28
5,COc1cc2ccc(=O)oc2c(OC)c1OC,inactive: 1.51
6,CCN1CCN(Cc2ccc(Nc3ncc(F)c(-c4cc(F)c5nc(C)n(C(C)C)c5c4)n3)nc2)CC1.CS(=O)(=O)O,inactive: 3.28
7,CCCCN(CCCC)CC(O)c1cc(Cl)cc2c1-c1ccc(Cl)cc1/C2=C/c1ccc(Cl)cc1 (configuration not stated) [Lumefantrine],inactive: -0.914
8,CCOC(=O)C1=C(C)NC(C)=C(C(=O)OC)C1c1cccc([N+](=O)[O-])c1 (configuration not stated),inactive: 0.63
9,CCCCOCCOCCOCc1cc2c(cc1CCC)OCO2 [Piperonyl butoxide],inactive: 3.42
10,NC(=O)c1ncn([C@@H]2O[C@H](CO)[C@@H](O)[C@H]2O)c1O,inactive: 2.25
11,NC(=O)c1ncn([C@@H]2O[C@H](CO)[C@@H](O)[C@H]2O)c1O [Mizoribine],inactive: 2.65
12,COc1ccc(-c2cc(=O)c3c(O)cc(OC)c(OC)c3o2)c(OC)c1,inactive: 1.21
13,CC1=CC(=O)C(C(C)C)=CC1=O,inactive: 2.08
14,CC(C)C1=CC2=CCC3[C@](C)(CCC[C@]3(C)C(=O)O)C2CC1 (some centres not stated),inactive: 2.39
15,CCOC(=O)C1=C[C@@]2(CC)CCCN3CCc4c(n1c1ccccc41)[C@@H]32 [Vinpocetine (Cavinton)],inactive: 2.78
16,CCC1(c2ccccc2)NC(=O)N(C)C1=O (configuration not stated),inactive: 3.38
17,NCCCCCC(=O)O [6-Aminohexanoic acid],inactive: 0.777
18,CNC[C@@H](O)c1ccc(O)c(O)c1.O=C(O)C(O)C(O)C(=O)O,inactive: -2.12
19,CN(C)CCN(Cc1cccs1)c1ccccn1.Cl [Methapyrilene hydrochloride],inactive: 2.87
20,O.O.O=C([O-])CCNC(=O)c1ccc(/N=N/c2ccc(O)c(C(=O)[O-])c2)cc1.[Na+].[Na+] [Balsalazide disodium salt dihydrate],inactive: 0.765
21,O=C(O)CCCc1ccccc1,inactive: 3.54

row,Structure (SMILES),cell-cell fusion (z-score)
1,CC#CCn1c(N2CCC[C@@H](N)C2)nc2c1c(=O)n(Cc1nc(C)c3ccccc3n1)c(=O)n2C [Linagliptin],inactive: 2.31
2,C[C@]12CCC(=O)C=C1CCC1C2C(=O)C[C@@]2(C)C1CC[C@]2(O)C(=O)CO (some centres not stated),inactive: 1.82
3,COc1ccc(-n2nc(C(N)=O)c3c2C(=O)N(c2ccc(N4CCCCC4=O)cc2)CC3)cc1 [Apixaban],inactive: 1.21
4,COC(=O)c1ccccc1O [Methyl salicylate],inactive: 0.643
5,NS(=O)(=O)c1cc2c(cc1Cl)NC(C(Cl)Cl)NS2(=O)=O (configuration not stated),inactive: 1.82
6,Cc1cc2c(cc1C1(c3ccc(C(=O)O)cn3)CC1)C(C)(C)CCC2(C)C,inactive: 0.561
7,CN1CCC[C@H]1c1cccnc1.O=C(O)C(O)C(O)C(=O)O.O=C(O)C(O)C(O)C(=O)O,inactive: 3.86
8,OC[C@H]1O[C@@H](Oc2ccc(O)cc2)[C@H](O)[C@@H](O)[C@@H]1O,inactive: 2.76
9,CC(C)C[C@H]1C(=O)N2CCC[C@H]2[C@]2(O)O[C@](NC(=O)[C@@H]3C[C@@H]4c5cccc6[nH]cc(c56)C[C@H]4N(C)C3)(C(C)C)C(=O)N12.CC(C)[C@@]1(NC(=O)[C@@H]2C[C@@H]3c4cccc5[nH]cc(c45)C[C@H]3N(C)C2)O[C@@]2(O)[C@@H]3CCCN3C(=O)[C@H](Cc3ccccc3)N2C1=O.CC(C)[C@H]1C(=O)N2CCC[C@H]2[C@]2(O)O[C@](NC(=O)[C@@H]3C[C@@H]4c5cccc6[nH]cc(c56)C[C@H]4N(C)C3)(C(C)C)C(=O)N12.CCC(C)[C@H]1C(=O)N2CCC[C@H]2[C@]2(O)O[C@](NC(=O)[C@@H]3C[C@@H]4c5cccc6[nH]cc(c56)C[C@H]4N(C)C3)(C(C)C)C(=O)N12.CS(=O)(=O)O [Dihydroergotoxine mesylate],inactive: -0.535
10,CCn1cc(C(=O)O)c(=O)c2cc(F)c(N3CCNCC3)nc21.CCn1cc(C(=O)O)c(=O)c2cc(F)c(N3CCNCC3)nc21.O.O.O [Enoxacin Sesquihydrate],inactive: 2.96
11,C/C(=C\CO)CC[C@H](C)CCC[C@H](C)CCCC(C)C,inactive: 1.51
12,COC(=O)C1=C(C)NC(C)=C(C(=O)OC)C1c1ccccc1[N+](=O)[O-] [Nifedipine],inactive: 0.624
13,Oc1ccc2ccccc2c1 [beta-NAPHTHOL],inactive: 0.621
14,CS(=O)(=O)OCCCCOS(C)(=O)=O [Busulfan],inactive: 2.46
15,C[C@H](N[C@@H](CCc1ccccc1)C(=O)O)C(=O)N1CCC[C@H]1C(=O)O [Enalaprilat dihydrate],inactive: 0.932
16,CN(C)[C@@H]1C(O)=C(C(N)=O)C(=O)[C@@]2(O)C(O)=C3C(=O)c4c(O)ccc(Cl)c4[C@@](C)(O)[C@H]3C[C@@H]12.Cl [Chlortetracycline hydrochloride],inactive: 1.08
17,Cc1cn2cc(C(=O)N(C)CCO)cc(N[C@@H]3CCOc4cccc(C)c43)c2n1,inactive: 3.04
18,Nc1ccc(C(=O)NCC(=O)O)cc1,inactive: 3.92
19,O=c1onc2n1-c1cc(Br)ccc1OC2,inactive: 3.73
20,NC(=O)c1ncn([C@@H]2O[C@@H](CO)[C@@H](O)[C@H]2O)c1N [Acadesine],inactive: 2.1
21,NC(CCP(=O)(O)O)C(=O)O (racemic) [(±)-2-Amino-4-phosphonobutyric acid],inactive: 2.68

# In another format: entries from further up
row | Structure (SMILES) | cell-cell fusion (z-score)
19 | O=c1onc2n1-c1cc(Br)ccc1OC2 | inactive: 3.73
20 | NC(=O)c1ncn([C@@H]2O[C@@H](CO)[C@@H](O)[C@H]2O)c1N [Acadesine] | inactive: 2.1
